{"source": "PubChem BioAssay AID652243 | Drosophila RNAi Screening Center – 2013", "assay": "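Fly regulators of androgen-dependent reporter output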 (primary screen)", "system": "Drosophila S2R+ cells", "knock-down reagent": "long dsRNA against Drosophila genes", "timing": "72 h (48 h, then 24 h hormone)", "challenge": "synthetic androgen R1881 at 10 nM for 24 h", "measurement": "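Per-well raw luminescence of the androgen-driven firefly reporter and of the Renilla control, two replicates each, without normalisation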", "direction": "firefly reporter light: higher = more light from androgen-responsive reporter; Renilla control light: higher = more constitutive control signal (cell number, transfection)", "hit rule": "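Across duplicate plates, a knock-down whose log firefly/Renilla ratio shifted a set fold down or up from the GFP/LacZ control mean was a hit; the downward cut appears as both 1.5 and 3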", "calls": "active = hit: reporter lowered or raised; inactive = no hit", "note": "The screen tested about 24,000 reagents; below is an unselected part of those with a known target gene and a result. Of all reagents, 246 (1%) are marked active. 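Plates not normalised; calls are printed but the firefly/Renilla ratio behind them is not deposited; fold cut for lowering reported inconsistently.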 Raw values are not corrected between plates. No sequences are given here. Not stated in the record: the amount of reagent."}
{"target gene": "CG13733", "amplicon": "DRSC10061", "firefly reporter light, replicate 1": 2.01e5, "firefly reporter light, replicate 2": 1.49e5, "Renilla control light, replicate 1": 1.95e6, "Renilla control light, replicate 2": 1.90e6, "call": "inactive"}
{"target gene": "CG15657", "amplicon": "DRSC04248", "firefly reporter light, replicate 1": 2.87e5, "firefly reporter light, replicate 2": 3.04e5, "Renilla control light, replicate 1": 1.74e6, "Renilla control light, replicate 2": 1.64e6, "call": "inactive"}
{"target gene": "Cyp4p1 (Cytochrome P450 4p1)", "amplicon": "DRSC07372", "firefly reporter light, replicate 1": 4.38e5, "firefly reporter light, replicate 2": 2.56e5, "Renilla control light, replicate 1": 2.48e6, "Renilla control light, replicate 2": 2.12e6, "call": "inactive"}
{"target gene": "Cyp4p1 (Cytochrome P450 4p1)", "amplicon": "DRSC26036", "firefly reporter light, replicate 1": 3.03e5, "firefly reporter light, replicate 2": 3.88e5, "Renilla control light, replicate 1": 8.86e5, "Renilla control light, replicate 2": 8.84e5, "call": "inactive"}
{"target gene": "CG34287", "amplicon": "DRSC38668", "firefly reporter light, replicate 1": 7.59e5, "firefly reporter light, replicate 2": 6.69e5, "Renilla control light, replicate 1": 1.68e6, "Renilla control light, replicate 2": 1.89e6, "call": "inactive"}
{"target gene": "Cp19 (Chorion protein 19)", "amplicon": "DRSC11121", "firefly reporter light, replicate 1": 1.35e5, "firefly reporter light, replicate 2": 1.09e5, "Renilla control light, replicate 1": 1.71e6, "Renilla control light, replicate 2": 1.54e6, "call": "inactive"}
{"target gene": "Cp19 (Chorion protein 19)", "amplicon": "DRSC28639", "firefly reporter light, replicate 1": 6.20e5, "firefly reporter light, replicate 2": 4.72e5, "Renilla control light, replicate 1": 1.45e6, "Renilla control light, replicate 2": 1.75e6, "call": "inactive"}
{"target gene": "r-cup (ryder cup)", "amplicon": "DRSC20475", "firefly reporter light, replicate 1": 1.56e5, "firefly reporter light, replicate 2": 1.44e5, "Renilla control light, replicate 1": 6.38e5, "Renilla control light, replicate 2": 4.55e5, "call": "inactive"}
{"target gene": "Prosalpha2 (Proteasome alpha2 subunit)", "amplicon": "DRSC16798", "firefly reporter light, replicate 1": 1.34e5, "firefly reporter light, replicate 2": 99762, "Renilla control light, replicate 1": 2.22e6, "Renilla control light, replicate 2": 8.94e5, "call": "inactive"}
{"target gene": "Prosalpha2 (Proteasome alpha2 subunit)", "amplicon": "DRSC28078", "firefly reporter light, replicate 1": 3.64e5, "firefly reporter light, replicate 2": 4.31e5, "Renilla control light, replicate 1": 4.96e5, "Renilla control light, replicate 2": 6.45e5, "call": "inactive"}
{"target gene": "Jon99Ciii (Jonah 99Ciii)", "amplicon": "DRSC16859", "firefly reporter light, replicate 1": 72648, "firefly reporter light, replicate 2": 97197, "Renilla control light, replicate 1": 1.23e6, "Renilla control light, replicate 2": 1.70e6, "call": "inactive"}
{"target gene": "CG33267", "amplicon": "DRSC09120", "firefly reporter light, replicate 1": 3.65e5, "firefly reporter light, replicate 2": 2.86e5, "Renilla control light, replicate 1": 3.05e5, "Renilla control light, replicate 2": 1.72e5, "call": "inactive"}
{"target gene": "CG6280", "amplicon": "DRSC06972", "firefly reporter light, replicate 1": 67093, "firefly reporter light, replicate 2": 44693, "Renilla control light, replicate 1": 9.04e5, "Renilla control light, replicate 2": 9.04e5, "call": "inactive"}
{"target gene": "klg (klingon)", "amplicon": "DRSC13591", "firefly reporter light, replicate 1": 37159, "firefly reporter light, replicate 2": 45689, "Renilla control light, replicate 1": 80883, "Renilla control light, replicate 2": 1.28e5, "call": "inactive"}
{"target gene": "klg (klingon)", "amplicon": "DRSC16978", "firefly reporter light, replicate 1": 1.58e5, "firefly reporter light, replicate 2": 2.08e5, "Renilla control light, replicate 1": 1.90e6, "Renilla control light, replicate 2": 1.87e6, "call": "inactive"}
{"target gene": "Sem1 (Suppressor of exocyst mutations 1)", "amplicon": "DRSC02282", "firefly reporter light, replicate 1": 1.20e5, "firefly reporter light, replicate 2": 1.20e5, "Renilla control light, replicate 1": 1.09e6, "Renilla control light, replicate 2": 8.29e5, "call": "inactive"}
{"target gene": "Sem1 (Suppressor of exocyst mutations 1)", "amplicon": "DRSC30061", "firefly reporter light, replicate 1": 6.17e5, "firefly reporter light, replicate 2": 7.63e5, "Renilla control light, replicate 1": 6.54e5, "Renilla control light, replicate 2": 8.06e5, "call": "inactive"}
{"target gene": "CG8613", "amplicon": "DRSC07222", "firefly reporter light, replicate 1": 9.11e5, "firefly reporter light, replicate 2": 8.26e5, "Renilla control light, replicate 1": 2.30e6, "Renilla control light, replicate 2": 1.73e6, "call": "inactive"}
{"target gene": "CG8613", "amplicon": "DRSC28364", "firefly reporter light, replicate 1": 5.20e5, "firefly reporter light, replicate 2": 8.85e5, "Renilla control light, replicate 1": 8.77e5, "Renilla control light, replicate 2": 1.45e6, "call": "inactive"}
{"target gene": "ebd2 (earthbound 2)", "amplicon": "DRSC11682", "firefly reporter light, replicate 1": 90660, "firefly reporter light, replicate 2": 1.77e5, "Renilla control light, replicate 1": 1.22e6, "Renilla control light, replicate 2": 1.60e6, "call": "inactive"}
{"target gene": "ebd2 (earthbound 2)", "amplicon": "DRSC28502", "firefly reporter light, replicate 1": 4.20e5, "firefly reporter light, replicate 2": 7.05e5, "Renilla control light, replicate 1": 1.02e6, "Renilla control light, replicate 2": 1.23e6, "call": "inactive"}
{"target gene": "CG34206", "amplicon": "DRSC38661", "firefly reporter light, replicate 1": 8.87e5, "firefly reporter light, replicate 2": 7.51e5, "Renilla control light, replicate 1": 2.09e6, "Renilla control light, replicate 2": 2.13e6, "call": "inactive"}
{"target gene": "CG33136", "amplicon": "DRSC05744", "firefly reporter light, replicate 1": 1.24e5, "firefly reporter light, replicate 2": 1.02e5, "Renilla control light, replicate 1": 2.38e5, "Renilla control light, replicate 2": 3.72e5, "call": "inactive"}
{"target gene": "CG33136", "amplicon": "DRSC29014", "firefly reporter light, replicate 1": 4.48e5, "firefly reporter light, replicate 2": 4.29e5, "Renilla control light, replicate 1": 8.50e5, "Renilla control light, replicate 2": 9.78e5, "call": "inactive"}
{"target gene": "CG15822", "amplicon": "DRSC08482", "firefly reporter light, replicate 1": 62639, "firefly reporter light, replicate 2": 56556, "Renilla control light, replicate 1": 1.10e6, "Renilla control light, replicate 2": 9.67e5, "call": "inactive"}
{"target gene": "CG15822", "amplicon": "DRSC08483", "firefly reporter light, replicate 1": 32969, "firefly reporter light, replicate 2": 49635, "Renilla control light, replicate 1": 5.80e5, "Renilla control light, replicate 2": 8.02e5, "call": "inactive"}
{"target gene": "SmydA-5 (SET and MYND domain containing, arthropod-specific, member 5)", "amplicon": "DRSC04867", "firefly reporter light, replicate 1": 2.22e5, "firefly reporter light, replicate 2": 1.80e5, "Renilla control light, replicate 1": 1.36e6, "Renilla control light, replicate 2": 1.47e6, "call": "inactive"}
{"target gene": "SmydA-5 (SET and MYND domain containing, arthropod-specific, member 5)", "amplicon": "DRSC27930", "firefly reporter light, replicate 1": 4.31e5, "firefly reporter light, replicate 2": 6.32e5, "Renilla control light, replicate 1": 9.91e5, "Renilla control light, replicate 2": 8.66e5, "call": "inactive"}

A run of entries from the list above, as a working copy:
{"target gene": "CG33136", "amplicon": "DRSC05744", "firefly reporter light, replicate 1": 1.24e5, "firefly reporter light, replicate 2": 1.02e5, "Renilla control light, replicate 1": 2.38e5, "Renilla control light, replicate 2": 3.72e5, "call": "inactive"}
{"target gene": "CG33136", "amplicon": "DRSC29014", "firefly reporter light, replicate 1": 4.48e5, "firefly reporter light, replicate 2": 4.29e5, "Renilla control light, replicate 1": 8.50e5, "Renilla control light, replicate 2": 9.78e5, "call": "inactive"}
